# Measurements: patent publication US11298344B2, “Composition for inhibiting sodium leak channel (NALCN), comprising n-benzhydryl quinuclidine derivatives” (Research & Business Foundation Sungkyunkwan University, priority 2018, dated 2022)
# Some results were stated once for a whole list of compounds, not compound by compound. At least one compound was matched to its structure with a doubt left.
# Test system: HEK293T cells that express M3R
# Test: Patch-clamp of HEK293T cells that express M3R, CCh-induced inward current
# Assay type: cell-based, human
# Conditions: holding potential −80 mV
structure (smiles),measurement,value
Cc1ccc(-c2nn(C(C)(C)C)c3ncnc(N)c23)cc1 [PP1],inhibition of the CCh-induced inward current,≥ 90%
